Among the data in PMC11960969, “Mdga2 deficiency leads to an aberrant activation of BDNF/TrkB signaling that underlies autism-relevant synaptic and behavioral changes in mice” (PLOS Biology, 2025) are binding values, retold here.

Chains of the proteins cited; added tags and fusions are not shown. Residues count along the entry.
UniProt Q16620, residues 32-822: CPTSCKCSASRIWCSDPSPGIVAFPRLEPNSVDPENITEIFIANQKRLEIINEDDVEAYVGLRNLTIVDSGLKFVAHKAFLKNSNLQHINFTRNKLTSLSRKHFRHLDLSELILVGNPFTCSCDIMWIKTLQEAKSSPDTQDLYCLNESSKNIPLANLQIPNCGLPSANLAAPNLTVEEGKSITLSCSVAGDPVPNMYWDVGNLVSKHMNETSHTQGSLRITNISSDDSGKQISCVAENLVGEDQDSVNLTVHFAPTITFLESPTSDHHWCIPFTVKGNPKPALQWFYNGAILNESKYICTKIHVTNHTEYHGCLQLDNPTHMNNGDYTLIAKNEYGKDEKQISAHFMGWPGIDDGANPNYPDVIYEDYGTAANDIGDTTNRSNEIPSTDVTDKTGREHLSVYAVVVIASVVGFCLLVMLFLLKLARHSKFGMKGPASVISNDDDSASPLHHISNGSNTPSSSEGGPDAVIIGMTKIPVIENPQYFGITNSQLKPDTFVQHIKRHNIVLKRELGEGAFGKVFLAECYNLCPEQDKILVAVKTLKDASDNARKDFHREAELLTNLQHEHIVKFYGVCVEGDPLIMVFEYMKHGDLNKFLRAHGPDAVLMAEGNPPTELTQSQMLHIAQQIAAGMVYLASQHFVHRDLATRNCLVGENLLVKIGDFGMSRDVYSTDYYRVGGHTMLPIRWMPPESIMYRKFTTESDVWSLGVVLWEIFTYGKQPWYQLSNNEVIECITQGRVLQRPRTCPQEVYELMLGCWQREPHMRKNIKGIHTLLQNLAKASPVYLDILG

Results are given in words; binding and its absence hold for the method and conditions named. Binding seen in cells or lysates may run through a third protein. Here binding means that the protein was enriched with, or labelled near, the bait; the list need not be complete. Where a sequence is shown, tags or fusion partners need not be part of it.

For the test, the target named is T1, GFP-tagged full-length human MDGA2 (MDGA2-GFP) (human) (UniProt Q7Z553).
T1 sequence: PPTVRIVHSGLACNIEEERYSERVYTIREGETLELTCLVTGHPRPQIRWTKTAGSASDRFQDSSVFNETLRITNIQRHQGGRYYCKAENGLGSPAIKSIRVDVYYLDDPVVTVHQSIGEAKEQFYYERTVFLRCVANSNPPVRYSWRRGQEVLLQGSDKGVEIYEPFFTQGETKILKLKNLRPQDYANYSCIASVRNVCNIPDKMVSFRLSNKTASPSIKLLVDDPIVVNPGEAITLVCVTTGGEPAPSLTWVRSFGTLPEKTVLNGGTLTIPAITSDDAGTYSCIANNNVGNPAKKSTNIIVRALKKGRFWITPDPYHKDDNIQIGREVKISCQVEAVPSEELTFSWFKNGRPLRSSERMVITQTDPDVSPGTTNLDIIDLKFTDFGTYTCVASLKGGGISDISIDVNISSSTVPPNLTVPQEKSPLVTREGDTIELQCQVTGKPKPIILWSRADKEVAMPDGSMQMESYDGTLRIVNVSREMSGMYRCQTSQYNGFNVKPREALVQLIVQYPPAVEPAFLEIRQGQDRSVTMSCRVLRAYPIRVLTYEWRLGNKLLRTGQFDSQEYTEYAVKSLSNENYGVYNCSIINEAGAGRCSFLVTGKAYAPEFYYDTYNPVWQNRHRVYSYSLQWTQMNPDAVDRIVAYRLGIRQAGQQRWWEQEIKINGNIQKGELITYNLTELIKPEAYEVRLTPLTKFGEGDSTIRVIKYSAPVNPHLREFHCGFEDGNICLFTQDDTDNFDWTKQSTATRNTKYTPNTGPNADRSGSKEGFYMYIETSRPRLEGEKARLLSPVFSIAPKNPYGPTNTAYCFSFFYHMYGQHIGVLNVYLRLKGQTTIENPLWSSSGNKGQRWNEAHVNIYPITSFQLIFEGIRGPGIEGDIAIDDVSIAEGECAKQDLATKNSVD
Description: affinity purification with mass spectrometry; MDGA2-GFP expressed in SH-SY5Y cells for 24 h; lysate (10 mM Tris-HCl pH 7.5, 150 mM NaCl, 0.5 mM EDTA, 0.5% NP-40) precipitated with anti-GFP and Protein G Agarose at 4 °C overnight; LC-MS/MS.

In the case of “TrkB, endogenous in SH-SY5Y cells (from UniProt Q16620 32-822) (receptor)”, the binding entry is recorded as “binds”.
